First the molecules themselves.
B1: Hu3F6-H2/Hu3F6-L3 (antibody, human IgG1, V domains shown)
VH: EVQLVQSGAEVKKPGASVKVSCKTSGFAFTSYWMNWVRQAPGQGLEWMGRIDPSDSEAHYHHKFWGRVTMTVDTSTSTVYMELSSLRSEDTAVYYCLRSLYGKGDYWGHGTTVTVSS
VL: DVVMTQSPLSLPVTLGQPASISCRSSQSLVHRNGNTYLEWYQQRPGQSPRLLIYKVSNRFSGVPDRFSGSGSGTDFTLKISRVEAEDVGVYYCYQGSHVPLTFGGGTKVEIK
notes: Human IgG1 FES (L234F, L235E, P331S) and human Ig kappa constant domains; also called Hu3F6 VH2/VL3
B2: Hu3F6-H2/Hu3F6-L4 (antibody, human IgG1, V domains shown)
VH: EVQLVQSGAEVKKPGASVKVSCKTSGFAFTSYWMNWVRQAPGQGLEWMGRIDPSDSEAHYHHKFWGRVTMTVDTSTSTVYMELSSLRSEDTAVYYCLRSLYGKGDYWGHGTTVTVSS
VL: DIVMTQTPLSLSVTPGQPASISCRSSQSLVHRNGNTYLEWYLQKPGQSPQLLIYKVSNRFSGVPDRFSGSGSGTDFTLKISRVEAEDVGVYYCYQGSHVPLTFGGGTKVEIK
notes: Human IgG1 FES (L234F, L235E, P331S) and human Ig kappa constant domains; also called Hu3F6 VH2/VL4
B3: Hu3F6-H2/Hu3F6-L5 (antibody, human IgG1, V domains shown)
VH: EVQLVQSGAEVKKPGASVKVSCKTSGFAFTSYWMNWVRQAPGQGLEWMGRIDPSDSEAHYHHKFWGRVTMTVDTSTSTVYMELSSLRSEDTAVYYCLRSLYGKGDYWGHGTTVTVSS
VL: DVVMTQTPLSLSVTPGQPASISCRSSQSLVHRNGNTYLEWYLQKPGQSPQLLIYKVSNRFSGVPDRFSGSGSGTDFTLKISRVEAEDVGVYYCYQGSHVPLTFGGGTKVEIK
notes: Human IgG1 FES (L234F, L235E, P331S) and human Ig kappa constant domains; also called Hu3F6 VH2/VL5
B4: Hu3F8-H4/Hu3F8-L4 (antibody, human IgG1, V domains shown)
VH: EVQLVQSGAEVKKPGASVKVSCKASGFTFTRYWMNWVRQAPGQGLEWIGRIDPSDSETHYNHKFWGRATLTVDKSTSTVYMELSSLRSEDTAVYYCLRSLYGKGDYWGQGTTVTVSS
VL: DIVMTQSPLSLPVTPGEPASISCRSSQSIVHSNGNTYLEWYLQKPGQSPQLLIYKVSNRFSGVPDRFSGSGSGTDFTLKISRVEAEDVGVYYCYQGSHVPLTFGGGTKVEIK
notes: Human IgG1 FES (L234F, L235E, P331S) and human Ig kappa constant domains; also called Hu3F8 VH4/VL4
B5: Hu3F8-H4/Hu3F8-L5 (antibody, human IgG1, V domains shown)
VH: EVQLVQSGAEVKKPGASVKVSCKASGFTFTRYWMNWVRQAPGQGLEWIGRIDPSDSETHYNHKFWGRATLTVDKSTSTVYMELSSLRSEDTAVYYCLRSLYGKGDYWGQGTTVTVSS
VL: DVVMTQSPLSLPVTPGEPASISCRSSQSIVHSNGNTYLEWYLQKPGQSPQLLIYKVSNRFSGVPDRFSGSGSGTDFTLKISRVEAEDVGVYYCYQGSHVPLTFGGGTKVEIK
notes: Human IgG1 FES (L234F, L235E, P331S) and human Ig kappa constant domains; also called Hu3F8 VH4/VL5
B6: Hu3F6-H2/Hu3F6-L8 (antibody, human IgG1, V domains shown)
VH: EVQLVQSGAEVKKPGASVKVSCKTSGFAFTSYWMNWVRQAPGQGLEWMGRIDPSDSEAHYHHKFWGRVTMTVDTSTSTVYMELSSLRSEDTAVYYCLRSLYGKGDYWGHGTTVTVSS
VL: DVVMTQSPLSLPVTPGEPASISCRSSQSLVHRNGNTYLEWYLQKPGQSPQLLIYKVSNRFSGVPDRFSGSGSGTDFTLKISRVEAEDVGVYYCYQGSHVPLTFGGGTKVEIK
notes: Human IgG1 FES (L234F, L235E, P331S) and human Ig kappa constant domains; also called Hu3F6 VH2/VL8
B7: Hu3F8-H4/Hu3F8-L3 (antibody, human IgG1, V domains shown)
VH: EVQLVQSGAEVKKPGASVKVSCKASGFTFTRYWMNWVRQAPGQGLEWIGRIDPSDSETHYNHKFWGRATLTVDKSTSTVYMELSSLRSEDTAVYYCLRSLYGKGDYWGQGTTVTVSS
VL: DVVMTQSPLSLPVTLGQPASISCRSSQSIVHSNGNTYLEWYQQRPGQSPRLLIYKVSNRFSGVPDRFSGSGSGTDFTLKISRVEAEDVGVYYCYQGSHVPLTFGGGTKVEIK
notes: Human IgG1 FES (L234F, L235E, P331S) and human Ig kappa constant domains; also called Hu3F8 VH4/VL3

These are yes or no findings as the source states them, for the method shown. Some results given as binding are weak or reduced against the parent protein; the word gives no strength.

The test addresses human adenosine A2A receptor (A2aR) (human, UniProt P29274 1-412). The experiment in a line: flow cytometry titration, HEK293-hA2aR cells. In general terms: In flow cytometry, cells or beads pass a laser one at a time.
For the molecule B1, the binding entry is on record as “binds”. The same measure for B2: “binds”; for B3: “binds”. Next, B4: “binds”; B5: “binds”; B6: “binds”. Next, B7: “binds”.

The record behind these values is US20250206828A1, “ANTI-ADENOSINE RECEPTOR (A2aR) ANTIBODIES AND THE USE THEREOF” (Adept Therapeutics Inc., priority 2022, published 2025).
